Data as given in PubChem BioAssay AID1259424 (University of Nebraska Medical Center, 2018).
Shown is an unselected part of about 14,000 reagents tested. 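Higher correlation or smaller distance means closer resemblance to KSR1 loss; control wells, including KSR1 knockdowns, recur on many plates.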 Not all columns of the deposit are shown. Not stated in the record: the time to read-out.

Aim: 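Find knockdowns that reproduce the expression shifts seen after KSR1 loss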 (primary screen)
Cells: human HCT116 colon cancer cells
Knock-down reagent: siRNA pool against human genes, 50 nM
Detection: 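Six signature mRNAs by branched-DNA multiplex assay, scaled to two housekeeping genes and non-targeting median, log2; matched to mean KSR1 knockdown profile by Pearson correlation and euclidean distance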
Scale: mean correlation with KSR1 profile: higher = expression change more like KSR1 knockdown; mean distance from KSR1 profile: higher = expression change less like KSR1 knockdown

Against MATCAP2 (microtubule associated tyrosine carboxypeptidase 2) [SID364005314], the entry reads mean correlation with KSR1 profile 0.627; mean distance from KSR1 profile 2.81. Depletion of MINAR1 (membrane integral NOTCH2 associated receptor 1) [SID364005164] came out at: mean correlation with KSR1 profile 0.807; mean distance from KSR1 profile 1.63. SCAMP3 [SID363996586] scored mean correlation with KSR1 profile 0.323; mean distance from KSR1 profile 1.14. ECH1 (enoyl-CoA hydratase 1) [SID363992667] showed mean correlation with KSR1 profile 0.669; mean distance from KSR1 profile 2.21. VPS33B (VPS33B late endosome and lysosome associated) [SID364001167] gave mean correlation with KSR1 profile 0.204; mean distance from KSR1 profile 3.15. IRX6 (iroquois homeobox 6) [SID364002806] gave mean correlation with KSR1 profile 0.184; mean distance from KSR1 profile 4.

RNF213 (ring finger protein 213) [SID364001911] showed mean correlation with KSR1 profile -0.556; mean distance from KSR1 profile 7.4. RNF213 (ring finger protein 213) [SID364005347] scored mean correlation with KSR1 profile -0.705; mean distance from KSR1 profile 4.22. MAPRE2 (microtubule associated protein RP/EB family member 2) [SID363998703] gave mean correlation with KSR1 profile 0.128; mean distance from KSR1 profile 2.13. For SDHC (succinate dehydrogenase complex subunit C) [SID363994151] the deposit lists mean correlation with KSR1 profile 0.431; mean distance from KSR1 profile 1.27. Silencing of PAK3 (p21 (RAC1) activated kinase 3) [SID363993747] resulted in: mean correlation with KSR1 profile 0.587; mean distance from KSR1 profile 1.2. Knock-down of PSMD13 (proteasome 26S subunit, non-ATPase 13) [SID363993973] came out at: mean correlation with KSR1 profile -0.742; mean distance from KSR1 profile 3.25.

Entries above whose target name begins with R or r (2):
RNF213 (ring finger protein 213) [SID364001911] — mean correlation with KSR1 profile = -0.556; mean distance from KSR1 profile = 7.4
RNF213 (ring finger protein 213) [SID364005347] — mean correlation with KSR1 profile = -0.705; mean distance from KSR1 profile = 4.22
